According to the supplement of paper PMC8256030:
Several values for one entry are separate records, joined by “and”; a condition that tells them apart may be missing. Identical values can stand only once. Counter-ions that a name gives are not always drawn. The list shows a part of the results. Single values are uncertain here, since repeats match poorly.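 HEK293T cells were given each compound shortly before transfection with a reporter in which red mCherry is followed by the SARS-CoV-2 frameshift element and then GFP in the −1 frame, so GFP appears only after frameshifting.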

How the values were obtained:
[1] = system: SARS-CoV-2 -1 PRF reporter mCherry-FSE-GFP(-1); assay: mCherry (red) intensity as percent of control; higher = higher upstream reporter expression; conditions: 10 µM; 24 h; HEK293T
[2] = system: SARS-CoV-2 -1 PRF reporter mCherry-FSE-GFP(-1); assay: percent effect, decrease of GFP/mCherry ratio (-1 PRF reporter) relative to controls; higher = stronger frameshift inhibition; conditions: 10 µM; 24 h; HEK293T
HEK293T = assay: percent viability (nuclei count) relative to control; higher = more viable cells; conditions: 10 µM; 24 h

Compound	mCherry [1]	percent effect [2]	percent viability (HEK293T)
CO/N=C(\C(=O)N[C@@H]1C(=O)N2C(C(=O)O)=C(COC(C)=O)CS[C@H]12)c1csc(N)n1 [Claforan]	99.4%	-3.21%	–
COc1ccnc(C[S+]([O-])c2nc3cc(-n4cccc4)ccc3[nH]2)c1C (stereo not given) [ilaprazole]	106%	-3.08%	–
O=C1c2cccc(O)c2C(=O)c2c(O)cccc21 [dantron]	75.8%	-1.78%	–
CCN(CC)CCCN1c2ccccc2Sc2ccc(Cl)cc21 [chlorproethazine]	52.5%	-2.01%	–
CC(C)CCC[C@@H](C)[C@H]1CC(=O)C2=C3CC[C@H]4C[C@@H](O)CC[C@]4(C)[C@H]3CC[C@@]21C [colestolone]	119%	-1.6%	–
CN[C@H]1CC[C@@H](c2ccc(Cl)c(Cl)c2)c2ccccc21	130%	-1.38%	–
Cc1cc(NS(=O)(=O)c2ccc(N)cc2)no1 [sulfamethoxazole]	124%	-9.05%	–
Cc1nc(=O)c2cc(CN(C)c3ccc(C(=O)N[C@@H](CCC(=O)O)C(=O)O)s3)ccc2[nH]1 [raltitrexed]	148%	6.32%	–
O=C1NS(=O)(=O)c2ccccc21	142%	2.22%	–
NC(=O)CC(N)C(=O)O (stereo not given)	98%	-2.79%	–
CCCNCC(O)COc1ccccc1C(=O)CCc1ccccc1 (stereo not given) [propafenone]	96% and 87.7%	-2.65% and 0.589%	–
C[C@@H]1O[C@@H](OC[C@H]2O[C@@H](Oc3c(-c4ccc(O)c(O)c4)oc4cc(O)cc(O)c4c3=O)[C@H](O)[C@@H](O)[C@@H]2O)[C@H](O)[C@H](O)[C@H]1O [rutoside]	118%	-3.86%	–
Cc1ncc([N+](=O)[O-])n1C [dimetridazole]	107%	0.12%	–
NC(=NCCCCCCN=C(N)N=C(N)Nc1ccc(Cl)cc1)N=C(N)Nc1ccc(Cl)cc1	95.2%	0.606%	–
CCCCN(CCCC)CC(O)c1cc(Cl)cc2c1-c1ccc(Cl)cc1/C2=C/c1ccc(Cl)cc1 (stereo not given) [Benflumetol]	109%	-2.63%	–
COc1ccc(-n2nc(CCC(=O)N(C)O)cc2-c2ccc(Cl)cc2)cc1 [tepoxalin]	73.2%	-1.4%	–
N=C(N)NCCC[C@H](N)C(=O)O [arginine]	111% and 118%	-1.55% and -1.83%	–
Cc1cccc(N2CC(CO)OC2=O)c1 (stereo not given) [Toloxatone]	112%	-0.752%	–
Cc1oc(=O)oc1CN1CCN(c2cc3c(cc2F)c(=O)c(C(=O)O)c2n3C(C)S2)CC1 (stereo not given) [prulifloxacin]	101%	-0.992%	–
C[N+](C)(CCOc1ccccc1)Cc1ccccc1.O=C([O-])c1cc2ccccc2cc1O [bephenium hydroxynaphthoate]	116%	-0.586%	–
CC(=O)Nc1cccc(O)c1 [metacetamol]	70.4%	-3.7%	–
CCN(CC)CCOC(=O)C1(C2CCCCC2)CCCCC1 [dicycloverine]	106%	-9.93%	–
Nc1[nH]cnc2ncnc1-2 [Adenine]	86.3%	-4.42%	–
Nc1ccc(C(=O)OCC(O)CO)cc1 (stereo not given) [lisadimate]	81.5%	-8.49%	–
Cc1ccc2nc(C)c(CCN3CCC(C(=O)c4ccc(F)cc4)CC3)c(=O)n2c1 [metrenperone]	88.8%	-7.06%	–

Compound	mCherry [1]	percent effect [2]	percent viability (HEK293T)
COCc1c(C(C)C)nc(C(C)C)c(/C=C/[C@@H](O)C[C@@H](O)CC(=O)O)c1-c1ccc(F)cc1 [Cerivastatin]	131%	2.33%	–
CCCCOc1ccc(C(=O)CCN2CCCCC2)cc1 [dyclonine]	84%	-0.496%	–
Nc1nc(O)c2ncn(CCC(CO)CO)c2n1	90%	1.5%	–
CN/C(=N\CCSCc1nc[nH]c1C)NC#N	108%	-4.44%	–
CC[C@]1(O)C[C@@H]2CN(CCc3c([nH]c4ccccc34)[C@@](C(=O)OC)(c3cc4c(cc3OC)N(C)[C@H]3[C@@](O)(C(=O)OC)[C@H](OC(C)=O)[C@]5(CC)C=CCN6CC[C@]43[C@@H]65)C2)C1 [Velban]	92%	-13%	–
CN(C)CC[C@@H](c1ccc(Cl)cc1)c1ccccn1 [dexchlorphenamine]	101%	-1.95%	–
NC(=O)NCCC[C@H](N)C(=O)O	114% and 107%	-6.42% and -1.42%	–
O=C(O)CCNC(=O)c1ccccc1 [betamipron]	115%	0.142%	–
CC(CN(C)C)CN1c2ccccc2CCc2ccccc21 (stereo not given)	106%	-3.09%	–
COc1cc2c(c(OC)c1OC)-c1ccc(OC)c(=O)cc1[C@@H](NC(C)=O)CC2 [Colchicine]	101%	-12.9%	20.4%
CC#C[C@]1(O)CC[C@H]2[C@@H]3C[C@H](C)C4=CC(=O)CC[C@]4(C)[C@H]3CC[C@@]21C [dimethisterone]	72.8%	0.773%	150%
OC[C@@H](O)[C@H]1O[C@@H]2O[C@H](C(Cl)(Cl)Cl)O[C@@H]2[C@H]1O [chloralose]	102%	-1.6%	142%
[N-]=[N+]=CC(=O)OC[C@H](N)C(=O)O [azaserine]	99.1%	-0.181%	184%
C[C@@H]1CC[C@H]2[C@@H](C)C(=O)O[C@@H]3O[C@@]4(C)CC[C@@H]1[C@]32OO4 [artemisinin]	103%	-0.457%	183%
C[C@@H]([C@H](O)c1ccccc1)N(C)C	122%	-6.35%	294%
NC1CC1c1ccccc1 (stereo not given)	111%	-5.05%	252%
O=C(Nc1ccc(Br)cc1)c1cc(Br)cc(Br)c1O [tribromsalan]	61.7%	-7.59%	155%
CCc1c(C(=O)C(N)=O)c2c(OCC(=O)O)cccc2n1Cc1ccccc1 [varespladib]	98.3%	-2.48%	78.1%
C=CCC1(c2ccccc2)C(=O)NC(=O)NC1=O	87.3%	-3.3%	281%
CC(=O)[C@H]1CC[C@H]2[C@@H]3CC[C@H]4C[C@H](O)CC[C@]4(C)[C@H]3C(=O)C[C@]12C [5A-Pregnan-3A-ol-11,20-dione]	108%	-1.76%	150%
CN1[C@H]2CC[C@@H]1[C@@H](C(=O)O)[C@@H](OC(=O)c1ccccc1)C2	92.3%	-7.85%	129%
CCc1ccc(C2CCNCC2)cc1 [enefexine]	91.5%	-8.54%	175%
O=c1c2ccccc2[se]n1-c1ccccc1 [ebselen]	77.2%	-6.71%	235%
CCC1(CC)C(=O)NC(=O)NC1=O [barbital]	106% and 85.9%	-1.54% and -5.26%	130% and 321%
N#Cc1nn(-c2c(Cl)cc(C(F)(F)F)cc2Cl)c(N)c1[S+]([O-])C(F)(F)F (stereo not given)	103%	-1.4%	175%

Compound	mCherry [1]	percent effect [2]	percent viability (HEK293T)
OC[C@@H](O)[C@H]1O[C@@H]2O[C@H](C(Cl)(Cl)Cl)O[C@@H]2[C@H]1O	110%	-3.84%	174%
Cn1cc(CCN2CCN(c3ccccc3Cl)CC2)cn1 [enpiprazole]	97%	-5.15%	273%
COP(=S)(OC)Oc1ccc(Sc2ccc(OP(=S)(OC)OC)cc2)cc1 [temefos]	89.3%	0.928%	177%
Nc1ccc([As](=O)(O)O)cc1 [arsanilic acid]	117%	-5.63%	175%
Cc1ccccc1-n1c(C)nc2ccccc2c1=O [methaqualone]	102%	-1%	218%
CC(=O)[C@H]1CC[C@H]2[C@@H]3CC[C@@H]4C[C@H](O)CC[C@]4(C)[C@H]3CC[C@]12C	128%	3.83%	168%
Cc1ccc2c(c1)[C@]13CCCC[C@@H]1[C@H](C2)N(C)CC3 [dimemorfan]	111%	-2.22%	57.4%
C[C@@H]1CC[C@H]2[C@@H](C)C(=O)O[C@@H]3O[C@@]4(C)CC[C@@H]1[C@]32OO4	112%	-1.66%	201%
CCC[C@@H]1CC(=O)N([C@@H](CC)C(N)=O)C1 [brivaracetam]	80%	-3.5%	146%
CC[C@H]1CN2CCc3cc(OC)c(OC)cc3[C@@H]2C[C@@H]1C[C@H]1NCCc2cc(OC)c(OC)cc21	15.4%	-15.1%	5.72%
COc1ccc(OC)c(C(O)C(C)N)c1 (stereo not given) [methoxamine]	93.2%	-3.24%	307%
CCC(=O)OC1(c2ccccc2)CCN(C)CC1C (stereo not given) [alphaprodine]	108%	1.14%	237%
CCCC(C)C1(CC)C(=O)NC(=O)NC1=O (stereo not given) [pentobarbital]	86.2%	-3.57%	60.8%
CN1C[C@H](CNC(=O)OCc2ccccc2)C[C@@H]2c3cccc4c3c(cn4C)C[C@H]21	127%	4.12%	607%
COc1cc(C2c3cc4c(cc3C(O)C(CO)C2C(=O)O)OCO4)cc(OC)c1OC.COc1cc(C2c3cc4c(cc3C(O)C(CO)C2C(=O)O)OCO4)cc(OC)c1OC.COc1cc(C2c3cc4c(cc3C(O)C3COC(=O)C23)OCO4)cc(OC)c1OC.COc1cc(C2c3cc4c(cc3C(O)C3COC(=O)C23)OCO4)cc(OC)c1OC (stereo not given) [Podophyllin]	107%	-1.68%	19.4%
FC(F)(F)c1cccc(C2=CCN(CCc3ccc4ccccc4c3)CC2)c1 [xaliproden]	73.9%	-7.9%	134%
CCC1(C)CC(=O)NC(=O)C1 [bemegride]	99.2%	-4.46%	202%
CCC(C)(C)C1C(=O)N2CCCC2C2(O)OC(NC(=O)C3CC4c5cccc6[nH]cc(c56)CC4N(C)C3)(C(C)C)C(=O)N12 (stereo not given) [Ergoloid mesylate]	100%	1.93%	340%
CCOc1cc(C=O)ccc1O	88.7%	-0.253%	342%
CNC(=O)Oc1ccccc1C(=O)Nc1ccccc1 [anilamate]	80.2%	-6.66%	130%
O=c1[nH]oc2c1CCNC2	95.4%	2.71%	312%
C[C@H]1[C@H](c2ccccc2)OCCN1C [Bontril]	70.5%	-9.63%	36.7%
CCCC(C)C1(CC)C(=O)NC(=S)NC1=O (stereo not given)	100%	1.34%	118%
